{"source": "the supplement of paper PMC8728848", "assay_in_all_cases": "glycan array binding signal (z-score within array); higher = stronger binding", "details_in_all_cases": "glycan notation: IUPAC condensed, linker removed", "key": {"[1]": {"biological_target": "Gal(b1-4)GlcNAc(b1-3)Gal(b1-4)GlcNAc(b1-2)[Gal(b1-4)GlcNAc(b1-3)Gal(b1-4)GlcNAc(b1-6)]Man(a1-6)[Gal(b1-4)GlcNAc(b1-3)Gal(b1-4)GlcNAc(b1-2)Man(a1-3)]Man(b1-4)GlcNAc(b1-4)[Fuc(a1-6)]GlcNAc", "outline": "(§1)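 Glycan array data came from 3228 arrays in the Consortium for Functional Glycomics database, and only arrays with an available protein sequence were kept. Glycan names were put into IUPAC-condensed notation, and columns mapping to the same glycan were averaged. The binding signal is a within-array Z-score, averaged across arrays of one protein sequence run at different concentrations or buffers and across linkers. A negative Z-score can be read as non-binding.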"}, "[2]": {"biological_target": "Gal(b1-4)GlcNAc(b1-3)Gal(b1-4)GlcNAc(b1-3)Gal(b1-4)GlcNAc", "outline": "as §1"}, "[3]": {"biological_target": "Gal(b1-4)GlcNAc(b1-3)Gal(b1-4)GlcNAc(b1-3)Gal(b1-4)GlcNAc(b1-2)Man(a1-3)[Gal(b1-4)GlcNAc(b1-3)Gal(b1-4)GlcNAc(b1-3)Gal(b1-4)GlcNAc(b1-2)Man(a1-6)]Man(b1-4)GlcNAc(b1-4)GlcNAc", "outline": "as §1"}, "[4]": {"biological_target": "Gal(b1-4)GlcNAc(b1-3)Gal(b1-4)GlcNAc(b1-3)Gal(b1-4)GlcNAc(b1-2)Man(a1-3)[Gal(b1-4)GlcNAc(b1-3)Gal(b1-4)GlcNAc(b1-3)Gal(b1-4)GlcNAc(b1-2)Man(a1-6)]Man(b1-4)GlcNAc(b1-4)[Fuc(a1-6)]GlcNAc", "outline": "as §1"}, "[5]": {"biological_target": "Gal(b1-4)GlcNAc(b1-3)Gal(b1-4)GlcNAc(b1-3)Gal(b1-4)GlcNAc(b1-2)[Gal(b1-4)GlcNAc(b1-3)Gal(b1-4)GlcNAc(b1-3)Gal(b1-4)GlcNAc(b1-6)]Man(a1-6)[Gal(b1-4)GlcNAc(b1-3)Gal(b1-4)GlcNAc(b1-3)Gal(b1-4)GlcNAc(b1-2)Man(a1-3)]Man(b1-4)GlcNAc(b1-4)[Fuc(a1-6)]GlcNAc", "outline": "as §1"}, "[6]": {"biological_target": "Gal(b1-4)GlcNAc(b1-3)Gal(b1-4)GlcNAc(b1-3)Gal(b1-4)GlcNAc(b1-3)Gal(b1-4)GlcNAc(b1-2)Man(a1-3)[Gal(b1-4)GlcNAc(b1-3)Gal(b1-4)GlcNAc(b1-3)Gal(b1-4)GlcNAc(b1-3)Gal(b1-4)GlcNAc(b1-2)Man(a1-6)]Man(b1-4)GlcNAc(b1-4)GlcNAc", "outline": "as §1"}, "[7]": {"biological_target": "Gal(b1-4)GlcNAc(b1-3)Gal(b1-4)GlcNAc(b1-3)Gal(b1-4)GlcNAc(b1-3)Gal(b1-4)GlcNAc(b1-2)Man(a1-3)[Gal(b1-4)GlcNAc(b1-3)Gal(b1-4)GlcNAc(b1-3)Gal(b1-4)GlcNAc(b1-3)Gal(b1-4)GlcNAc(b1-2)Man(a1-6)]Man(b1-4)GlcNAc(b1-4)[Fuc(a1-6)]GlcNAc", "outline": "as §1"}, "[8]": {"biological_target": "Gal(b1-4)GlcNAc(b1-3)Gal(b1-4)GlcNAc(b1-3)Gal(b1-4)GlcNAc(b1-3)Gal(b1-4)GlcNAc(b1-2)[Gal(b1-4)GlcNAc(b1-3)Gal(b1-4)GlcNAc(b1-3)Gal(b1-4)GlcNAc(b1-3)Gal(b1-4)GlcNAc(b1-6)]Man(a1-6)[Gal(b1-4)GlcNAc(b1-3)Gal(b1-4)GlcNAc(b1-3)Gal(b1-4)GlcNAc(b1-3)Gal(b1-4)GlcNAc(b1-2)Man(a1-3)]Man(b1-4)GlcNAc(b1-4)[Fuc(a1-6)]GlcNAc", "outline": "as §1"}, "[9]": {"biological_target": "Gal(b1-4)GlcNAc(b1-3)Gal(b1-4)GlcNAc(b1-3)Gal(b1-4)GlcNAc(b1-3)Gal(b1-4)GlcNAc(b1-3)Gal(b1-4)GlcNAc(b1-2)Man(a1-3)[Gal(b1-4)GlcNAc(b1-3)Gal(b1-4)GlcNAc(b1-3)Gal(b1-4)GlcNAc(b1-3)Gal(b1-4)GlcNAc(b1-3)Gal(b1-4)GlcNAc(b1-2)Man(a1-6)]Man(b1-4)GlcNAc(b1-4)GlcNAc", "outline": "as §1"}, "[10]": {"biological_target": "Gal(b1-4)GlcNAc(b1-3)Gal(b1-4)GlcNAc(b1-3)Gal(b1-4)GlcNAc(b1-3)Gal(b1-4)GlcNAc(b1-3)Gal(b1-4)GlcNAc(b1-2)Man(a1-3)[Gal(b1-4)GlcNAc(b1-3)Gal(b1-4)GlcNAc(b1-3)Gal(b1-4)GlcNAc(b1-3)Gal(b1-4)GlcNAc(b1-3)Gal(b1-4)GlcNAc(b1-2)Man(a1-6)]Man(b1-4)GlcNAc(b1-4)[Fuc(a1-6)]GlcNAc", "outline": "as §1"}, "[11]": {"biological_target": "Gal(b1-4)GlcNAc(b1-3)Gal(b1-4)GlcNAc(b1-3)Gal(b1-4)GlcNAc(b1-3)Gal(b1-4)GlcNAc(b1-3)Gal(b1-4)GlcNAc(b1-2)[Gal(b1-4)GlcNAc(b1-3)Gal(b1-4)GlcNAc(b1-3)Gal(b1-4)GlcNAc(b1-3)Gal(b1-4)GlcNAc(b1-3)Gal(b1-4)GlcNAc(b1-6)]Man(a1-6)[Gal(b1-4)GlcNAc(b1-3)Gal(b1-4)GlcNAc(b1-3)Gal(b1-4)GlcNAc(b1-3)Gal(b1-4)GlcNAc(b1-3)Gal(b1-4)GlcNAc(b1-2)Man(a1-3)]Man(b1-4)GlcNAc(b1-4)[Fuc(a1-6)]GlcNAc", "outline": "as §1"}, "[12]": {"biological_target": "Gal(b1-4)GlcNAc(b1-3)Gal(b1-4)GlcNAc(b1-3)Gal(b1-4)GlcNAc(b1-3)Gal(b1-4)GlcNAc(b1-3)Gal(b1-4)GlcNAc(b1-3)Gal(b1-4)GlcNAc(b1-2)Man(a1-3)[Gal(b1-4)GlcNAc(b1-3)Gal(b1-4)GlcNAc(b1-3)Gal(b1-4)GlcNAc(b1-3)Gal(b1-4)GlcNAc(b1-3)Gal(b1-4)GlcNAc(b1-3)Gal(b1-4)GlcNAc(b1-2)Man(a1-6)]Man(b1-4)GlcNAc(b1-4)GlcNAc", "outline": "as §1"}, "[13]": {"biological_target": "Gal(b1-4)GlcNAc(b1-3)Gal(b1-4)GlcNAc(b1-3)GalNAc", "outline": "as §1"}, "[14]": {"biological_target": "Gal(b1-4)GlcNAc(b1-3)Gal(b1-4)GlcNAc(b1-3)[Gal(b1-4)GlcNAc(b1-3)Gal(b1-4)GlcNAc(b1-6)]GalNAc", "outline": "as §1"}, "[15]": {"biological_target": "Gal(b1-4)GlcNAc(b1-3)Gal(b1-4)GlcNAc(b1-6)[Gal(b1-3)]GalNAc", "outline": "as §1"}, "[16]": {"biological_target": "Gal(b1-4)GlcNAc(b1-3)Gal(b1-4)[Fuc(a1-3)]GlcNAc(b1-3)Gal(b1-4)[Fuc(a1-3)]GlcNAc", "outline": "as §1"}, "[17]": {"biological_target": "Gal(b1-4)GlcNAc(b1-3)GalNAc", "outline": "as §1"}, "[18]": {"biological_target": "Gal(b1-4)GlcNAc(b1-3)[Fuc(a1-3)GlcNAc(b1-6)]Gal(b1-4)Glc", "outline": "as §1"}, "[19]": {"biological_target": "Gal(b1-4)GlcNAc(b1-3)[Gal(b1-4)GlcNAc(b1-6)]Gal(b1-4)GlcNAc", "outline": "as §1"}, "[20]": {"biological_target": "Gal(b1-4)GlcNAc(b1-3)[GlcNAc(b1-6)]Gal(b1-4)GlcNAc", "outline": "as §1"}, "[21]": {"biological_target": "Gal(b1-4)GlcNAc(b1-6)Gal(b1-4)GlcNAc", "outline": "as §1"}, "[22]": {"biological_target": "Gal(b1-4)GlcNAc(b1-6)GalNAc", "outline": "as §1"}, "[23]": {"biological_target": "Gal(b1-4)GlcNAc(b1-6)[Gal(b1-3)]GalNAc", "outline": "as §1"}, "[24]": {"biological_target": "Gal(b1-4)GlcNAc(b1-6)[Gal(b1-4)GlcNAc(b1-3)]GalNAc", "outline": "as §1"}, "Gal(b1-4)GlcNAc6P": {"biological_target": "Gal(b1-4)GlcNAc6P", "outline": "as §1"}, "Gal(b1-6)Gal": {"biological_target": "Gal(b1-6)Gal", "outline": "as §1"}, "Gal3S(b1-3)GalNAc": {"biological_target": "Gal3S(b1-3)GalNAc", "outline": "as §1"}, "Gal3S(b1-3)GlcNAc": {"biological_target": "Gal3S(b1-3)GlcNAc", "outline": "as §1"}, "[25]": {"biological_target": "Gal3S(b1-3)[Fuc(a1-4)]GlcNAc", "outline": "as §1"}, "Gal3S(b1-4)Glc": {"biological_target": "Gal3S(b1-4)Glc", "outline": "as §1"}}, "note": "Some of the results follow."}
{"binder": "Blon0732mut (Bifidobacterium longum) (protein) MPTSEHKADDATRHLTLIPAPVTLEYTHGTALIGPLVTIEDADQSWETLPIEQLSDELRHRYGVTVLRRRTHGTVISLGLDSRLAHDEYTLDVSESEGIRVRGGGESGLRYGLQTLRQIIGQTSRAIPCLHIQDKPAFAVRAYSLDVTRGRVPTMEFLTWFVDQLALYKYNQFQLYVEHAFAFVELSEAWRGTDPLTAADITYLDEYCARRGIELVPSLATFGHMYMNLRTREHRGLGEFPEDADRPFSFIERMEHHTLNAADPKAHDFASRLIEEYAPLFRSKSFNIGGNETFDLGRGRSAQDAPEAGRDELYAGFVRDLCETLARHGRQPMLWADIALESPRTMDLLPGDITMLNWMYEPQIDESKIQTIATQGRRQFVCPAVRAWSRFFPDYAGAWLNTYHMALAGTKYDAEGMVVTDWGDYGHVNDPRLSVPGLCYGAQNAWNPIEIDAHEMNRRISALVYGDESGRIMDCLARIDSDGVSFPWDLAVQVLELEYGSGTGALNMDVAACMERSSGGKLTLDRTLGCDDARRRMLQWNRERIERRRDCDQVLRDCGDAFAGLDKGGLTAEFLSVMLDGQRLFNELGEELLALADGKDVGSGANRLAADLELWFERYRAQWLSVGRHAELARIAHVVWSLADILRRGAL", "values": [{"measurement": "glycan array binding signal (z-score)", "setting": "[1]", "result": -1.22}, {"measurement": "glycan array binding signal (z-score)", "setting": "[2]", "result": 0.655}, {"measurement": "glycan array binding signal (z-score)", "setting": "[3]", "result": 1.2}, {"measurement": "glycan array binding signal (z-score)", "setting": "[4]", "result": -0.478}, {"measurement": "glycan array binding signal (z-score)", "setting": "[5]", "result": -1.31}, {"measurement": "glycan array binding signal (z-score)", "setting": "[6]", "result": -0.174}, {"measurement": "glycan array binding signal (z-score)", "setting": "[7]", "result": -0.514}, {"measurement": "glycan array binding signal (z-score)", "setting": "[8]", "result": 0.066}, {"measurement": "glycan array binding signal (z-score)", "setting": "[9]", "result": 0.957}, {"measurement": "glycan array binding signal (z-score)", "setting": "[10]", "result": 1.92}, {"measurement": "glycan array binding signal (z-score)", "setting": "[11]", "result": 0.154}, {"measurement": "glycan array binding signal (z-score)", "setting": "[12]", "result": -0.584}, {"measurement": "glycan array binding signal (z-score)", "setting": "[13]", "result": -0.371}, {"measurement": "glycan array binding signal (z-score)", "setting": "[14]", "result": 0.572}, {"measurement": "glycan array binding signal (z-score)", "setting": "[15]", "result": 0.446}, {"measurement": "glycan array binding signal (z-score)", "setting": "[16]", "result": -1.49}, {"measurement": "glycan array binding signal (z-score)", "setting": "[17]", "result": -0.424}, {"measurement": "glycan array binding signal (z-score)", "setting": "[18]", "result": 0.274}, {"measurement": "glycan array binding signal (z-score)", "setting": "[19]", "result": -0.73}, {"measurement": "glycan array binding signal (z-score)", "setting": "[20]", "result": -0.639}, {"measurement": "glycan array binding signal (z-score)", "setting": "[21]", "result": -0.268}, {"measurement": "glycan array binding signal (z-score)", "setting": "[22]", "result": 0.168}, {"measurement": "glycan array binding signal (z-score)", "setting": "[23]", "result": 0.232}, {"measurement": "glycan array binding signal (z-score)", "setting": "[24]", "result": 1.55}, {"measurement": "glycan array binding signal (z-score)", "setting": "Gal(b1-4)GlcNAc6P", "result": 0.292}, {"measurement": "glycan array binding signal (z-score)", "setting": "Gal(b1-6)Gal", "result": -0.313}, {"measurement": "glycan array binding signal (z-score)", "setting": "Gal3S(b1-3)GalNAc", "result": 1.16}, {"measurement": "glycan array binding signal (z-score)", "setting": "Gal3S(b1-3)GlcNAc", "result": 1.39}, {"measurement": "glycan array binding signal (z-score)", "setting": "[25]", "result": -0.29}, {"measurement": "glycan array binding signal (z-score)", "setting": "Gal3S(b1-4)Glc", "result": 1.06}]}
